From article doi:10.1101/2025.03.06.641895
Results are given in words; binding and its absence hold for the method and conditions named. Binding seen in cells or lysates may run through a third protein. A yes stands for co-enrichment or nearness to the bait. Other partners may have been found.

T1: Ataxin-2-like (ATXN2L) (mouse (endogenous in MEF)) (UniProt Q7TQH0)
T1 sequence: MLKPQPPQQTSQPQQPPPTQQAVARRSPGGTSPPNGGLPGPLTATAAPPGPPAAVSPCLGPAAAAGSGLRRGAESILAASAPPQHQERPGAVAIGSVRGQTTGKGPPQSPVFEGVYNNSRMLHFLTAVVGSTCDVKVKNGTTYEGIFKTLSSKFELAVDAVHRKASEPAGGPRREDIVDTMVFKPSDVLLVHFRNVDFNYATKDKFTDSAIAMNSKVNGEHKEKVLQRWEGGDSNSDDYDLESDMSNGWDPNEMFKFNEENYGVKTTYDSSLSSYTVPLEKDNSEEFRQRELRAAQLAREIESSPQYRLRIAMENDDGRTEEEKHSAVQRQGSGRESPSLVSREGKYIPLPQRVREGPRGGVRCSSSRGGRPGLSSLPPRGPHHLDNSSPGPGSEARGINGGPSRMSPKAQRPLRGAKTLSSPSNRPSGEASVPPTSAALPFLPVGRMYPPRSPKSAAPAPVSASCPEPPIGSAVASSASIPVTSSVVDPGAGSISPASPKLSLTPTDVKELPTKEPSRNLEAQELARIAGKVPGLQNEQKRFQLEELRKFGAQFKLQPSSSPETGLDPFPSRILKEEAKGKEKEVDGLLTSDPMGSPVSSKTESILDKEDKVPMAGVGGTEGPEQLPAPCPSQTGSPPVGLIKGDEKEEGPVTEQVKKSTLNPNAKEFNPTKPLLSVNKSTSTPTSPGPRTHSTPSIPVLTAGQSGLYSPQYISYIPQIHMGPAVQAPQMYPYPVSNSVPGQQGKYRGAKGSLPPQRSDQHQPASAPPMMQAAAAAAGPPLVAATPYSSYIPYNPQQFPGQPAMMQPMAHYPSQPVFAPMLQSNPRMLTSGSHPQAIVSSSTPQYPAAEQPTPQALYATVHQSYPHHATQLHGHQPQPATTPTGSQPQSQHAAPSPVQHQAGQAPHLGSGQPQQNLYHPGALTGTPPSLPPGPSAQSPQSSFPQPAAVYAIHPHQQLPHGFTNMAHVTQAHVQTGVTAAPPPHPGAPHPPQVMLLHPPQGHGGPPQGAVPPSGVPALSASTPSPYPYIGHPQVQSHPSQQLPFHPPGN

B1: FYB (protein, UniProt O35601 1-819)
chain: MAKFNTGSNPTEEAATSSRPFKVAGQSSPSGIQSRKNLFDNQGNASPPAGPSSMPKFGTTKPPLAAKPTYEEKPEKEPKPPFLKPTGGSPRFGTQPNSVSRDPEVKVGFLKPVSPKPTSLTKEDSKPVVLRPPGNKLHNLNQESDLKTPGPKPGPAPPVPENELKPGFSKVAGAKSKFMPAAQDTDSKPRFPRHTFGQKPSLSTEDSQEENTSKNVPVQKGSPVQLGAKSKGAPFKPPKEDPEDKDHGAPSSPFPGVVLKPAASRGSPGLSKNFEEKKEDRKTDLAKNIFLNKLNQEEPARFPKAPSKLTAGTPWGQSQEKEGDKNSATPKQKALPPLSVLGPPPPKPNRPPNVDLTRFRKADSANSATKSQTPYSTTSLPPPPPTHPASQPPLPASHPAHPPVPSLPPRNIKPPLDLKHPINDENQDGVMHSDGTGNLEEEQESEGETYEDIDSSKERDKKREKEEKKRLELERKEQKEREKKEQELKKKFKLTGPIQVIHHAKACCDVKGGKNELSFKQGEDIEIIRITDNPEGKWLGRTARGSYGYIKTTAVEIDYDSLKRKKNSLNAVPPRLVEDDQDVYDDVAEQDAPNSHGQSGSGGMFPPPPTDDEIYDGIEEEDDDDGSVPQVDEKTNAWSWGILKMLKGKDDRKKSIREKPKVSESDNNEGSSLPSQHKQLDVGEEVYDDVDASDFPPPPAEMSQGMSVGRAKTEEKDPKKLKKQEKEEKDLRKKFKYDGEIRVLYSTKVASSLTSKKWGARDLQIKPGESLEVIQSTDDTKVLCRNEEGKYGYVLRSYLVDNDGEIYDDIADGCIYDND
B2: GOLGA3 (protein, UniProt P55937 1-1487)
chain: MDGASAKQDGLWESKSSSDVSSCPEASLETVGSLARLPDQQDTAQDASVEVNRGFKEEGSPDRSSQVAICQNGQIPDLQLSLDPTTSPVGPDASTGVDGFHDNLRNSQGTSAEGSVRKEALQSLRLSLPMQETQLCSTASSLPLEKEEQVRLQARKRLEEQLMQYRVKRHRERSSQPATKMKLFSTLDPELMLNPENLPRASTVAVTKEYSFLRTSVPRGPKVGSLGLLAHSKEKKNSKSSKIRSLADYRTEDPSDSGGLGSTADAVGSSLKQSRSSTSVVSEVSPSSETDNRVESASMTGDSVSEADGNESDSSSHSSLSARGACGVLGNVGMPGTAYMVDGQEISAEALGQFPSIKDVLQAAAAQHQDQNQEANGEVRSRRDSICSSVSMESSLAEPQDELLQILKDKRRLEGQVEALSLEASQALQEKAELQAQLAALSTRLQAQVEHSHSSQQKQDSLSSEVDTLKQSCWDLGRAMTDLQSMLEAKNASLASSNNDLQVAEEQYQRLMAKVEDMQRNILSKDNTVHDLRQQMTALQSQLQQVQLERTTLTSKLQASQAEITSLQHARQWYQQQLTLAQEARVRLQGEMAHIQVGQMTQAGLLEHLKLENVSLSHQLTETQHRSIKEKERIAVQLQSIEADMLDQEAAFVQIREAKTMVEEDLQRRLEEFEGEREQLQKVADAAASLEQQLEQVKLTLFQRDQQLAALQQEHLDVIKQLTSTQEALQAKGQSLDDLHTRYDELQARLEELQREADSREDAIHFLQNEKIVLEVALQSAKSDKEELDRGARRLEEDTEETSGLLEQLRQDLAVKSNQVEHLQQETATLRKQMQKVKEQFVQQKVMVEAYRRDATSKDQLINELKATKKRLDSEMKELRQELIKLQGEKKTVEVEHSRLQKDMSLVHQQMAELEGHLQSVQKERDEMEIHLQSLKFDKEQMIALTEANETLKKQIEELQQEAKKAITEQKQKMKRLGSDLTSAQKEMKTKHKAYENAVSILSRRLQEALASKEATDAELNQLRAQSTGGSSDPVLHEKIRALEVELQNVGQSKILLEKELQEVITMTSQELEESREKVLELEDELQESRGFRRKIKRLEESNKKLALELEHERGKLTGLGQSNAALREHNSILETALAKREADLVQLNLQVQAVLQRKEEEDRQMKQLVQALQVSLEKEKMEVNSLKEQMAAARIEAGHNRRHFKAATLELSEVKKELQAKEHLVQTLQAEVDELQIQDGKHSQEIAQFQTELAEARTQLQLLQKKLDEQMSQQPTGSQEMEDLKWELDQKEREIQSLKQQLDLTEQQGKKELEGTQQTLQTIKSELEMVQEDLSETQKDKFMLQAKVSELKNNMKTLLQQNQQLKLDLRRGAAKKKEPKGESNSSSPATPIKIPDCPVPASLLEELLRPPPAVSKEPLKNLNNCLQQLKQEMDSLQRQMEEHTITVHESLSSWAQVEAAPAEHAHPRGDTKLHNQNSVPRDGLGQ
B3: PRDX1 (Peroxiredoxin 1) (protein, UniProt P35700 1-199)
chain: MSSGNAKIGYPAPNFKATAVMPDGQFKDISLSEYKGKYVVFFFYPLDFTFVCPTEIIAFSDRADEFKKLNCQVIGASVDSHFCHLAWINTPKKQGGLGPMNIPLISDPKRTIAQDYGVLKADEGISFRGLFIIDDKGILRQITINDLPVGRSVDEIIRLVQAFQFTDKHGEVCPAGWKPGSDTIKPDVNKSKEYFSKQK
B4: NUFIP2 (Nuclear Fragile X Mental Retardation Protein Interacting Protein 2) (protein, UniProt Q5F2E7 1-692)
chain: MEEKPGQPQPQHHHSHHHPHHHPQQQQQQQSHHHHHYYFYNHSHNHHHHHHHQQPHQYLQHGAEGSPKAQPKPLKHEQKHTLQQHQETPKKKTGYGEINGNAGEREISLKSLSSDEATNPISRVLNGNQQVVETSLKQTVKTSTFGKAGIKTKNFIQKNSMDKKNGKSYENKSGETQAVDKTDTIAIPNGVITSSSGYITNGYMSKGADNDGSGSESGYTTPKKRKARRNSAKGCENLNLVQDKIMQETSVPALKQGLETLKPDYSEQKGMRVDGSKPIWKYETGPGGTSRGKPAMGDVLRKSSDIKPGLSSKKFDDRPKGKHASAAASKEDSWTLFKPPPVFPVDNSSAKIVPKISYASKVKENLNKTVQNSSVSPSSSSSSSSTGETQTQSSSRLSQVPMSALKSVTSASFSNGPVLAGTDGSVYPSGGQPLLTTAANTLTPISTGTDSVLQDMSLASAAVEQIKSSLFIYPSNMQTVLLSAQVDLPSQTDQQNLGDIFQNQWGLSFINEPSAGPETVIGKSSDHKVMEVTFQGEYPATLVSQGAEIIPSGTEHPVFPKAYELEKRTSPQVLGHILKPGTTESGALSLDPSHIGDLQKADTSSQGALVFLSKDYEIENQNPLASPTNTLLGSAKEQRYQRGLERNDSWGSFDLRAAIVYHTKEMESIWNLQKQDPKRIITYNEAMDSPDQ
B5: MCRIP2 (protein, UniProt Q9CQB2 1-160)
chain: MYTITKGPSKLVAQRRTGPTQQQVESRLGELLKCRQPVPPTALPAHLQPSAQTQGPWPLASSGPRLVFNRVNGRRPLTTSPSLEGTQETYTVAHEENVRFVSEAWQQVERQLDGGPADESGPRPVQYVESTPDPRLQNFVPIDLDEWWAQQFLAKITNCS
B6: RBMS1 (protein, UniProt Q91W59 1-403)
chain: MGKVWKQQMYPQYATYYYPQYLQAKQSLVPAHPMAPPSPSTTSSNNNSSSSSNSGWDQLSKTNLYIRGLPPNTTDQDLVKLCQPYGKIVSTKAILDKATNKCKGYGFVDFDSPAAAQKAVSALKANGVQAQMAKQQEQDPTNLYISNLPLSMDEQELENMLKPFGQVISTRVLRDSSGASRGVGFARMESTEKCEAVIGHFNGKFIKTPPGVSAPTEPLLCKFADGGQKKRQNPNKYIPNGRPWPRDGEAGMTLTYDPTTAALHNGFYPSPYSIATNRMITQTSLTPYIASPVSAYQVQSPSWMQPQPYILQHPGAVLTPSMEHTMSLQPASMISPLAQQMSHLSLGSTGTYMPATSAMQGAYLPQYTHMQTAAVPVEEASGQQQVAVETSNDHSPYTFPPNK

biological target: T1, Ataxin-2-like (ATXN2L) (mouse (endogenous in MEF)); assay: affinity purification with mass spectrometry

Binder | binding
B1 | binds
B2 | binds
B3 | binds
B4 | binds
B5 | binds
B6 | binds
